Measured values as given in article PMC8301015, “Atypical Bacilliredoxin AbxC Plays a Role in Responding to Oxidative Stress in Radiation-Resistant Bacterium Deinococcus radiodurans” (Antioxidants, 2021).
These are yes or no findings as the source states them, for the method shown. Where a sequence is shown, tags or fusion partners need not be part of it.

Target: AbxC (atypical BrxC; DR_1832), C-terminal His x 6 tag (Deinococcus radiodurans) (UniProt Q9RTD3)
Assay: non-reducing SDS-PAGE; as a1, with the disulfide reducing agent DTT added for AbxC reduction; both purified

- binding: no binding (condition: with DTT)
B1: AbxC (atypical BrxC; DR_1832), C-terminal His x 6 tag (enzyme, Deinococcus radiodurans, UniProt Q9RTD3 1-211, looked up)
chain: MTQGQDQVLSPLTTPDEVDQFLKDYPLAAVFKAGTCHKTMQGFGVLETFLQRYELPVGFIRVVDWRPASNHVAELTGLTHHSPQFILFKDGQAQYEVNNWDITPEALGPVFEQQVPQRSGAAQVDAGDSVEPYRQLMQAYLAGQLSDWAFQDQYVTMFRDDASLRSQREFELLSRLFGDPDAYHGGLHQLGAPQDRGDLKARVQSVLDQLG
notes: AbxC (DR_1832), Deinococcus radiodurans R1; monomer 23.7 kDa; single cysteine Cys36; also called putative homolog of BrxC (YtxJ); source: E. coli BL21-CodonPlus (DE3)-RP, purified (Ni-NTA, Superdex 75HR)
